Experimental data as given in US9562084B2, “Peptides derived from NCAPG2 and their use” (NATIONAL CANCER CENTER, priority 2014, dated 2017).
For at least one compound, name, drawing or mass did not settle the structure. Where a SMILES comes first, the peptide text is derived from it. [ ]: non-standard residue; d: D form. pT = C[C@@H](OP(=O)(O)O)[C@H](N)C(=O)O

Molecular target: T1, human PLK1-PBD (371-594) (Homo sapiens, UniProt P53350)
T1 construct: The human PLK1-PBD (371-594) was amplified by PCR; GST (N, cleaved yes); made in house; host or cells: E. coli Rosetta2(DE3)pLysS
Assay: Fluorescence polarisation binding assay for the PBD of PLK1
Conditions: FITC-labelled peptide 10 nM, protein 0 to 4 μM, 30 min
Experimental: The human PLK1-PBD (371-594) was amplified by PCR and cloned into the pGEX6p-1 vector using the EcoRI and XhoI restriction enzyme sites. The protein was overexpressed in E. coli Rosetta2(DE3)pLysS cells (Novagen). The cells were grown at 37° C. in 3 L of Terrific Broth medium to an OD600 of 0.6, and recombinant protein expression was induced with 0.1 mM isopropyl β-D-thiogalactopyranoside (IPTG) at 20° C. The cells were further grown at 20° C. for 20 hr after IPTG induction. […] The purified protein was concentrated to 6 mg/ml and used for fluorescence polarization binding assay or crystal screening.
For the fluorescence polarisation binding assay, FITC-labelled 1010pT (GVLSpTLI) or 1010T (GVLSTLI) (SEQ ID NO: 8) peptide was mixed with purified PBD and incubated in a buffer containing 10 mM HEPES (pH7.5), 50 mM NaCl, 1 mM EDTA, 1 mM DTT, and 0.0025% (v/v) Tween 20. […] Fluorescence polarisation was analysed 30 min after mixing the peptide and proteins in a 96-well plate using a VERSAmax microplate reader (Molecular Devices). […]
The human PLK1-PBD (371-594), PLK2-PBD (451-685) and PLK3-PBD (412-646) genes were cloned into pGEX6p-1 vector using EcoRI/XhoI restriction sites. […] The purified PLK-PBD proteins were concentrated and used for the fluorescence polarization binding assay. […]

In the case of CC[C@H](C)[C@H](NC(=O)[C@H](CC(C)C)NC(=O)[C@@H](NC(=O)[C@H](CO)NC(=O)[C@H](CC(C)C)NC(=O)[C@@H](NC(=O)CN)C(C)C)[C@@H](C)OP(=O)(O)O)C(N)=O [1010pT, GVLSpTLI] (H-GVLS[pT]LI-NH2; N-terminus and C-terminus assumed), the Kd is reported as 69.9 ± 16 nM.
